# According to patent US20250320471A1, “Method for Producing Compounds, Method for Producing Compound Library, Compound Library, and Screening Method” (The University of Tokyo, priority 2021, published 2025):
# For some of these results: The name of at least one read-out is uncertain. For some of these results: For at least one compound, name, drawing or mass did not settle the structure. Peptide text beside a SMILES is read from it.
# Experiments:
# [1] = tested on: wt-LimF, prenyltransferase from Limnothrix sp. CACIAM 69d, wild type, SEQ ID NO: 1; experiment: Prenyl group donor (GPP) concentration dependence of bcLimE2 prenylation, Michaelis-Menten; type: biochemical; settings: 1 μM enzyme, various GPP, 0.1 mM bcLimE2, 5 mM MgCl2, pH 7.2, 25° C
# [2] = tested on: LimF; experiment: Steady-state kinetics of prenylation facilitated by LimF (wild type); type: biochemical, Limnothrix sp. CACIAM 69d
# Method: Under optimal conditions, the steady-state kinetic parameters of the prenylation reaction of bcLimE2 facilitated by LimF were measured by the methods described below.
# The concentration dependence of GPP and MgCl2 in bcLimE2 prenylation reactions facilitated by LimF was measured in reaction systems containing 1 μM LimF, 1 mM or a suitably modified concentration of GPP, 50 mM HEPES pH 7.2, 0.4 mM substrate, 1 mM DTT, and 40 mM or a suitably modified concentration of MgCl2. A reaction solution containing components other than GPP was prepared and preheated to 25° C., and the reaction was then started by adding GPP. After incubating at 25° C., the reaction was stopped at each point and analyzed by LC-MS. Next, the initial rate was calculated as the slope of increase in the amount of prenylation product produced in the linear region. Three separate reactions were carried out under each condition and the mean and standard deviation of the results were used for the analysis.
# For GPP concentration dependence and peptide substrate concentration dependence, the kinetic parameters were estimated by fitting the initial rate and GPP substrate concentration or peptide substrate concentration to the Michaelis-Menten model in Graphpad Prism 8.4.2 (GraphPad Prism Software Inc., San Diego, California) software.
# Kinetic parameters of the His-prenylation reaction facilitated by LimF were determined based on reactions under optimal conditions using substrates of different concentrations. For the Tyr-prenylation described below, the kinetic parameters were measured under the same conditions except that LimF was set to 5 μM and the reaction temperature was set to 16° C. In order to estimate the kinetic parameters, the initial rate and substrate concentration were fitted to the Michaelis-Menten model in Graphpad Prism 8.4.2 software.
# In order to further evaluate the two different prenylation modes by LimF, two teMPs (teR6-H5A/Y7H and teR6-H5A) that undergo efficient His-prenylation and Tyr-prenylation, respectively, were designed and chemically synthesized. […]
# [3] = tested on: bcLimE2; experiment: Kinetic parameters of LimF and variants at various bcLimE2 concentrations; type: biochemical
# [4] = His-prenylation (C10), optimal conditions
molecule,measurement,setting,value
"CC(C)=CCC/C(C)=C/COP(=O)(O)OP(=O)(O)O [GPP, geranyl pyrophosphate]",Vmax,[1],Vmax = 10.03 ± 0.24 min^−1
same,Km,[1]; read-out: KGPP,110 µM
CCC(C)C1NC(=O)C(CCC(=O)O)NC(=O)C(CCC(=O)O)NC(=O)C(Cc2c[nH]cn2)NC(=O)C2CCCN2C(=O)C(Cc2ccc(O)cc2)NC(=O)C(CCCNC(=N)N)NC(=O)C2CCCN2C1=O (stereo not shown) [bcLimE2] (cyclo(EEIPRYPH); configuration not given here),kcat/Km,[2]; [4],735 M⁻¹ s⁻¹
teR6-H5A/Y7H: teMP designed to undergo efficient His-prenylation (FRGNATYIPC; D-residues; cyclised or stapled),kcat/Km,[2]; [4],323 M⁻¹ s⁻¹
"tecyclo[DFRGNATYIPC] (D-residues; cyclised or stapled) [teR6-H5A, thioether ring-closing cyclic peptide, teR6 with His substituted with Ala]",kcat/Km,"[2]; Tyr-prenylation, 5 μM LimF, 16° C.",2.33 M⁻¹ s⁻¹
LimF-H239G/W273T (protein) MKKRKSSKVFKSTIAPEEKLRYIGNHKQAFDIEPLYPLALFEEFVATTGDCIIECSGKIKQDQLYPARIDLQFSDKHHFHNIHTSIDFLKRAASRTDVNLNLDILATFLAGNFDYSKVQNILAGIDLRQNLGESKLKLFIRIGDYPAKMAVAKHLCNITPESEAMLRSDTLHIGFDFYLDGRSAIELYPELKKDEFNHPFIYNQLKTILSPEALKPLPLCNLFGIGLSPANEANVLYYGLENIEDFLSYFPINDTARRVHDFYLQQEGSRRMTVALSESEMKAGRINNVNLYYSKAFTSQNP,kcat/KM,[3]; prenyl group donor FPP,17 M⁻¹ s⁻¹
same,kcat/KM,[3]; prenyl group donor GPP,0.67 M⁻¹ s⁻¹
